Measured values from patent US12723078.
These are yes or no findings as the source states them, for the method shown. Some entries that bind do so weakly or less than the wild type.

By UniProt entry, the sequences of proteins in these tests, tags left out. Where a name states a change or a piece, a line headed by the entry shows the natural chain unless it says otherwise. Residues count along the entry.
UniProt Q8N6C8, residues 24-439: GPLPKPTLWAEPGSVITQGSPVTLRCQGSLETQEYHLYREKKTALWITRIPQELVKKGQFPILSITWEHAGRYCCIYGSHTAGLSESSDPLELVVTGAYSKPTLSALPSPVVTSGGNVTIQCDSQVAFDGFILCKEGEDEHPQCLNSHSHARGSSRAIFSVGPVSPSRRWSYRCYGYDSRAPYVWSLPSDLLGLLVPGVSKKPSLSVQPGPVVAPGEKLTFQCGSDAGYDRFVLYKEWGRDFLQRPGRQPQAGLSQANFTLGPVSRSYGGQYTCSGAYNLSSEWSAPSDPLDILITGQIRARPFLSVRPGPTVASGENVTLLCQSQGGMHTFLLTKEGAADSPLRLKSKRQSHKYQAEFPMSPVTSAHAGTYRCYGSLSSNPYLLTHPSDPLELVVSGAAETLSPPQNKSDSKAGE
UniProt A6NI73, residues 42-268: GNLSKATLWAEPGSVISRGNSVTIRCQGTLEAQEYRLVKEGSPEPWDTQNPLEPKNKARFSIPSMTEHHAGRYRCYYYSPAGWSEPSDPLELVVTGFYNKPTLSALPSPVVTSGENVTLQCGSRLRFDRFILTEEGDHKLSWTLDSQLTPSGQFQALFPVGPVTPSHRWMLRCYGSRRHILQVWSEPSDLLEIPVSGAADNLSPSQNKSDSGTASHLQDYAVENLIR
UniProt Q8N149, residues 24-449: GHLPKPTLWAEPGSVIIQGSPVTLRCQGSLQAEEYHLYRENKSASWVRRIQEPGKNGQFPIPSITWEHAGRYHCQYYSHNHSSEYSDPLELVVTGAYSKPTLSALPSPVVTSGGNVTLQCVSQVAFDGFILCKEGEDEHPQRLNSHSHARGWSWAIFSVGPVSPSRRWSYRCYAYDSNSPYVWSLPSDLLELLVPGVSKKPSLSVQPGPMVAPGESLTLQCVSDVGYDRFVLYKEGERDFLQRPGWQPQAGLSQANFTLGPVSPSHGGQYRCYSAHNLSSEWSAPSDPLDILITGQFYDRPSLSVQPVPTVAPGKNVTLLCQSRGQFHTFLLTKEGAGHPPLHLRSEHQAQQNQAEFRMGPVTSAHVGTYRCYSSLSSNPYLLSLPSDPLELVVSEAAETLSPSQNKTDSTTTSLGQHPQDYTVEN
UniProt Q8NHJ6, residues 22-259: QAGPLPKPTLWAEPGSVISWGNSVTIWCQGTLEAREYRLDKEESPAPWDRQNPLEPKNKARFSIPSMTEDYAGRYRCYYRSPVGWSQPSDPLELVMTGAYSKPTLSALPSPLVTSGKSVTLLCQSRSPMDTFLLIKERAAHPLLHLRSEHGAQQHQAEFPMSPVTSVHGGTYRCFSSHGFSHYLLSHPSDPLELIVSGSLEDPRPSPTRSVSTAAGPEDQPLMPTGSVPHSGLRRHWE
UniProt Q6PI73, residues 24-447: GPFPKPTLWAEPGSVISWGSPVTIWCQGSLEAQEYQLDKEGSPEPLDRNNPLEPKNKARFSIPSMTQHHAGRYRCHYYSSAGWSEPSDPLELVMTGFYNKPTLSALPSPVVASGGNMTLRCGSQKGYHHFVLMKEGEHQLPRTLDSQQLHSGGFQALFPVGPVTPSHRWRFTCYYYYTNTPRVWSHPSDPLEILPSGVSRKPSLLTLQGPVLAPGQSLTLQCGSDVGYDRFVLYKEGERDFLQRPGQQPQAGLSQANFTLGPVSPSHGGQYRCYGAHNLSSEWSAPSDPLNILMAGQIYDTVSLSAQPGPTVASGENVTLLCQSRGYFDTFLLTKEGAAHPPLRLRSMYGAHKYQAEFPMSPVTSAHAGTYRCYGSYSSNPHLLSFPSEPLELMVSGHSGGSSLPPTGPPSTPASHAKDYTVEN
UniProt Q8N423, residues 22-460: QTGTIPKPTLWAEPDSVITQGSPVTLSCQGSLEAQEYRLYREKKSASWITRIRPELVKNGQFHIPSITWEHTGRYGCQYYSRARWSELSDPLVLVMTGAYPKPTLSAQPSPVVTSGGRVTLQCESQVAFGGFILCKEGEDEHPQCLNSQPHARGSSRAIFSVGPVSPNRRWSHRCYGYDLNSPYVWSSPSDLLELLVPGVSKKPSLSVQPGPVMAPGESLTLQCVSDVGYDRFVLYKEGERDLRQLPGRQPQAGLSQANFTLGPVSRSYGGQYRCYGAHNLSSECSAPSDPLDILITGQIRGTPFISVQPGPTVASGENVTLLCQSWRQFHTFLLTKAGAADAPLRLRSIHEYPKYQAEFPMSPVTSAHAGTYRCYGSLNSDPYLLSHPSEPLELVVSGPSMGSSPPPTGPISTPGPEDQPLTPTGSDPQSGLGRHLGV
UniProt P59901, residues 24-446: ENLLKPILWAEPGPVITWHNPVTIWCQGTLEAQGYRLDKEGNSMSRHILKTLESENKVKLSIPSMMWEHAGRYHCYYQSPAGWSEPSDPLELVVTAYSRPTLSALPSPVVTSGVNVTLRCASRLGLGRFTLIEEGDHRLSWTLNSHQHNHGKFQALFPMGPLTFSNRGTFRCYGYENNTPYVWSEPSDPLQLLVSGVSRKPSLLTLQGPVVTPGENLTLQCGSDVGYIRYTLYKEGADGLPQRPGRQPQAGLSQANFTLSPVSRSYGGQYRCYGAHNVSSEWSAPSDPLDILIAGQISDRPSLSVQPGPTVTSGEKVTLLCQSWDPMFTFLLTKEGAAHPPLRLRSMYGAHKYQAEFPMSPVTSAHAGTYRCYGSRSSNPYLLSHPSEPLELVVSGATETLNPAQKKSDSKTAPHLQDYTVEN
UniProt Q8NHL6: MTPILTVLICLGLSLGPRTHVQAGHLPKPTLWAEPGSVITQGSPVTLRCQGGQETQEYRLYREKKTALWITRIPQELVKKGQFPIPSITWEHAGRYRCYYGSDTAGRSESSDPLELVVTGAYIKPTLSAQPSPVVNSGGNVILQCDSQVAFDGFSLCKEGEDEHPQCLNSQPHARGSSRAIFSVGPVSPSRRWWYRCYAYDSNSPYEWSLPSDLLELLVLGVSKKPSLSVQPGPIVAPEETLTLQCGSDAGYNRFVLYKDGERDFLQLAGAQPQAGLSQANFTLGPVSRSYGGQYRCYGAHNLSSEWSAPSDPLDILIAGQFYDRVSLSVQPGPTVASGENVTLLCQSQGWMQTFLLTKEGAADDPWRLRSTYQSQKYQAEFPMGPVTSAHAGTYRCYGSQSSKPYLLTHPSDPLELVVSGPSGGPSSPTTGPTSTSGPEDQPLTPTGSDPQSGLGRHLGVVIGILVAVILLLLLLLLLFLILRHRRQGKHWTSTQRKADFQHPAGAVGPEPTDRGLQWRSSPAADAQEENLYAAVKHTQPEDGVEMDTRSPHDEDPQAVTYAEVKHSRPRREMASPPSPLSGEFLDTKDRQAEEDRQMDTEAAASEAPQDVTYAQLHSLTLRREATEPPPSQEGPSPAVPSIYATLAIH

How the values were obtained:
LILRA3 (human) = LILRA3 (human) (UniProt Q8N6C8); assay: Octet RED96, cross-reactivity table
LILRA5 (human) = LILRA5 (human) (UniProt A6NI73); assay: Octet RED96, cross-reactivity table
LILRB3 = assay: Octet RED96, cross-reactivity table
LILRA2 (human) = LILRA2 (human) (UniProt Q8N149); assay: Octet RED96, cross-reactivity table
LILRB4 (human) = LILRB4 (human) (UniProt Q8NHJ6); assay: Octet RED96, cross-reactivity table
LILRB5 = assay: Octet RED96, cross-reactivity table
LILRA6 (human) = LILRA6 (human) (UniProt Q6PI73); assay: Octet RED96, cross-reactivity table
LILRB2 (human) = LILRB2 (human) (UniProt Q8N423); assay: Octet RED96, cross-reactivity table
LILRA4 (human) = LILRA4 (human) (UniProt P59901); assay: Octet RED96, cross-reactivity table
[1] = molecular target: recombinant human LILRB1 protein (human) (UniProt Q8NHL6); assay: ELISA
[2] = molecular target: recombinant human LILRB1 protein (human) (UniProt Q8NHL6); assay: Octet RED96 or ELISA

Binder | binding (LILRA3 (human)) | binding (LILRA5 (human)) | binding (LILRB3) | binding (LILRA2 (human)) | binding (LILRB4 (human)) | binding (LILRB5) | binding (LILRA6 (human)) | binding (LILRB2 (human)) | binding (LILRA4 (human)) | binding [1] | binding [2]
B1-#3 (antibody, V domains shown) VH: QSLEESEGDLVKPEGSLTLTCKASGFDFSSDAMCWVRQAPGKGLEWIGCIYNGDEITDHASWAKGRFTISKTSPTTVTLQMTSLTVADTATYFCARAVYSDGGAGYPYMYGMDLWGPGTLVTVSS VL: ELDMTQTPASVEAAVGGTVTIKCQASQNIYSYLVWYQQKPGQPPKLLISKASTLASGVSSRFKGSGSGTEFTLTINDLECADAATYYCQTNYFSSTSHFGVFTFGGGTELEIK | no binding (tested: not given) | no binding (tested: not given) | no binding (tested: not given) | no binding (tested: not given) | no binding (tested: not given) | no binding (tested: not given) | no binding (tested: not given) | no binding (tested: not given) | no binding (tested: not given) |  | 
B1-#204 (antibody, V domains shown) VH: QSVKESGGGLVKPGGTLTLTCTASGFSFSSSYCMCWVRQAPGKGLELIACIYTDSSGATYYASWAKGRFTISKSSSTTITLQMTSLTAADTATYFCARGWDYEDPGYTDTTYFSLWGPGTLVTVSS VL: ELDMTQTPSSVEAAVGGTVTIKCQASQTIYTNLAWYQQKPGQPPNLLIYAASTLASGVSSRFKGSGSGTEFTLTISDLECADAATYYCQSYYGSSTTGNGFGGGTEVEIN | no binding (tested: not given) | no binding (tested: not given) | no binding (tested: not given) | no binding (tested: not given) | no binding (tested: not given) | no binding (tested: not given) | no binding (tested: not given) | no binding (tested: not given) | no binding (tested: not given) |  | 
Hu B1-176-LALAPG (antibody, V domains shown) VH: EVQLVESGGGLVQPGGSLRLSCAASGFSFSSSYCMCWVRQAPGKGLELVSCIYTDSSGATYYASWAKGRFTISRHNSKNTLYLQMNSLRAEDTAVYYCARGWDYEDPGYTDTTYFSLWGRGTLVTVSS VL: DIQLTQSPSFLSASVGDRVTITCQASQTIYTNLAWYQQKPGKAPKLLIYAASTLASGVPSRFSGSGSGTEFTLTISSLQPEDFATYYCQSYYGSSTTGNGFGGGTKVEIK |  |  |  |  |  |  |  |  |  | binds | binds
B1-#190 (antibody, V domains shown) VH: QEQLKESGGDLVKPEGSLTLTCTASGFSFSSDYWVCWVRQAPGKGPEWIGCIYTGDDDTYYASWAKGRFTISKTSSTTVTLEVTSLTAADTATYFCARGLTIGTAELYFWGPGTVVTVSS VL: ELVLTQTPSPVSAAVGGTVTINCQASQSISNELSWYQQKPGQPPKLLIYLASTLDSGVPSRFKGSGSGTQFTLTISDLECADAATYYCQSHYYGGSSDYGWAFGGGTEVVVK | no binding (tested: not given) | no binding (tested: not given) | no binding (tested: not given) | no binding (tested: not given) | no binding (tested: not given) | no binding (tested: not given) | no binding (tested: not given) | no binding (tested: not given) | no binding (tested: not given) |  | 

More lines, now with the values ahead:

binding (LILRA3 (human)) | binding (LILRA5 (human)) | binding (LILRB3) | binding (LILRA2 (human)) | binding (LILRB4 (human)) | binding (LILRB5) | binding (LILRA6 (human)) | binding (LILRB2 (human)) | binding (LILRA4 (human)) | binding [1] | binding [2] | Binder
 |  |  |  |  |  |  |  |  | binds |  | Rab-VH & Hu-VL (antibody, V domains shown) VH: QSLEESEGGLVKPGGTLTLTCTASGFSFSSSYCMCWVRQAPGKGLELIACIYTDSSGATYYASWAKGRFTISKSSSTTITLQMTSLTAADTATYFCARGWDYEDPGYTDTTYFSLWGPGTLVTVSS VL: DIQLTQSPSFLSASVGDRVTITCQASQTIYTNLAWYQQKPGKAPKLLIYAASTLASGVPSRFSGSGSGTEFTLTISSLQPEDFATYYCQSYYGSSTTGNGFGGGTKVEIK
 |  |  |  |  |  |  |  |  |  | binds | Hu B1-176-N297A (antibody, V domains shown) VH: EVQLVESGGGLVQPGGSLRLSCAASGFSFSSSYCMCWVRQAPGKGLELVSCIYTDSSGATYYASWAKGRFTISRHNSKNTLYLQMNSLRAEDTAVYYCARGWDYEDPGYTDTTYFSLWGRGTLVTVSS VL: DIQLTQSPSFLSASVGDRVTITCQASQTIYTNLAWYQQKPGKAPKLLIYAASTLASGVPSRFSGSGSGTEFTLTISSLQPEDFATYYCQSYYGSSTTGNGFGGGTKVEIK
no binding (tested: not given) | no binding (tested: not given) | no binding (tested: not given) | no binding (tested: not given) | no binding (tested: not given) | no binding (tested: not given) | no binding (tested: not given) | no binding (tested: not given) | no binding (tested: not given) |  |  | B1-#5 (antibody, V domains shown) VH: EQSLEESGGDLVKPEGSLTLTCTASELSFSSAYYMCWVRQAPGKGLEWIGCIYSGDGDTYYANWAKGRFTISKTSSTTVTLQMTSLTDADTATYFCARALDSHYSSFDLWGPGTLVTISS VL: ELDMTQTPSSVSAAVGDTVTIKCQASQSIYRYLAWYQQKPGQRPSLLIYYGSDLASGVPSRFSGSGSGTEFTLTISDLECADAASYYCQTTYDDYHNGWAFGGGTNVEIN
